Results are given in words; binding and its absence hold for the method and conditions named. Some binding calls cover weakened binding; strength is not graded here. Sequences can lack the tags named with a protein.
Molecular target: T1, MFSD2ACO expressed in HEK-293T.17 cells (LPC-analog transport assay) (human) (UniProt Q8NA29)
T1 sequence: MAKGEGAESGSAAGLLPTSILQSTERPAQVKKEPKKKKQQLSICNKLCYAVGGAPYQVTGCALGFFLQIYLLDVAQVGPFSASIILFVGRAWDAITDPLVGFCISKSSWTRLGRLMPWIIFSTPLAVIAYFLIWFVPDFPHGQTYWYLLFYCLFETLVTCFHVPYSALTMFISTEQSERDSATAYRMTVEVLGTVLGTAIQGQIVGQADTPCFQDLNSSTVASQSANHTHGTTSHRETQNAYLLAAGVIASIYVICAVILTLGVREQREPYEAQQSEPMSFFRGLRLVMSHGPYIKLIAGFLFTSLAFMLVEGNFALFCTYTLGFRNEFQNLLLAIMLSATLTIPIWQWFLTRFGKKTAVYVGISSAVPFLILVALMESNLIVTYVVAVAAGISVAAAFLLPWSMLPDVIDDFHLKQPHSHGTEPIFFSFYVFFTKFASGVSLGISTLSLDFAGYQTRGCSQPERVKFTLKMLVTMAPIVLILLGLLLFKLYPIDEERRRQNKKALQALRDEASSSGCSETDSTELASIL
Assay: FIG. 4F legend; purified soluble fragment added to cells expressing MFSD2A, with binding inferred from transport inhibition

B1: SYNC2SU-CO (soluble thermostable consensus SYNC2 fragment with C43S), purified, C-terminal EPEA-tag (ligand)
chain: AYRHPDFPLLEKAQQLLQSTGSPYSTNSWLCTSSSTETPGTAYPASPREWTSIEAELHISYRWDPNLKGLMRPANSLLSTVKQDFPDIRQKPPIFGPIFTNINLMGIAPICVTAKRKNGTNVGTLPSTVCNVTFTVDPNQQTYQTYTHNQFRHQPRFPKPPNITFPQGTLLDKSTRFCQGRPSSCSTRNFWFRPADYNQCLQISNLSSTAEWVLLDQTRNSLFWENKTKGANQSQTPCVQVLAGMTIATSYLGISAVSEFFGTSLTPLFHFHISTCLKTQGAFYICGQSIHQCLPSNWTGTCTIGYVTPDIFIAPEPEA
Q: How did the binding turn out when B1 was run?
A: binds
